Data as given in paper PMC10352421.
No constants are given. Whether binding was seen depends on the method and setting. Binding seen in cells or lysates may run through a third protein. Some results given as binding are weak or reduced against the parent protein; the word gives no strength.

The chains behind the UniProt entries cited, without tags or fusion partners.
UniProt Q15717: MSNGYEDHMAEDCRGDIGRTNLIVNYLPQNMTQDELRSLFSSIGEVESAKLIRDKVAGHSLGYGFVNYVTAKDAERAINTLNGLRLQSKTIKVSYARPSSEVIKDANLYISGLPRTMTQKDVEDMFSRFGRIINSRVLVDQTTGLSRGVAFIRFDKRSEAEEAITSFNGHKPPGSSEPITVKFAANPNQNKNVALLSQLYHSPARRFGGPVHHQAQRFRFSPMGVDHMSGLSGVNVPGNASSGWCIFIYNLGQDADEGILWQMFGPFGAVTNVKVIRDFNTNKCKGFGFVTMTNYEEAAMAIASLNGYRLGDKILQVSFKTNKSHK
UniProt Q9Y297: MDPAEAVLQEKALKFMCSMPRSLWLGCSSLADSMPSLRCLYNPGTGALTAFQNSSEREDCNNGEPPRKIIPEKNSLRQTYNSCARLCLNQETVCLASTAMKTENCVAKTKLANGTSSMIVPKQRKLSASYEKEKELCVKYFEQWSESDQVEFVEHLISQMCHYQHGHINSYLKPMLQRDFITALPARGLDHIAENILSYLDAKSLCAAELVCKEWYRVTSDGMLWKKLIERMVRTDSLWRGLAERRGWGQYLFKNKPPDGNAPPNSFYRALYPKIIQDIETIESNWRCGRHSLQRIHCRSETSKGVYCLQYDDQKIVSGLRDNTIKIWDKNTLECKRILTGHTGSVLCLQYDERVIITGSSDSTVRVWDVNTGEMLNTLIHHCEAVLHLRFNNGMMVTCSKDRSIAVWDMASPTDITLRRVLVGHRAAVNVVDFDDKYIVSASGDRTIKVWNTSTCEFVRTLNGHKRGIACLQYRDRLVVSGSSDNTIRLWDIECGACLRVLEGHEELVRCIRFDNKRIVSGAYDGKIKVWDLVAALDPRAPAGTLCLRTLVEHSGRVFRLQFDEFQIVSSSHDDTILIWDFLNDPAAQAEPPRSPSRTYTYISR

Molecular target: embryonic lethal abnormal vision like RNA binding protein 1 (ELAVL1) (human (endogenous in A431 and HSC-5)) (UniProt Q15717)
Assay: co-IP; lysates of MG132-treated A431 and HSC-5 cells infected with sh-LINC00460 or sh-NC; Protein-A/G MagBeads with anti-ELAVL1 or anti-β-TrCP antibody overnight at 4 °C; western blotting with anti-ELAVL1 or anti-βTrCP

## β-transducin repeats-containing protein (β-TrCP) (from UniProt Q9Y297 1-605)
  binding: binds
